# Reference: publication PMC5996148
# The chains behind the UniProt entries cited, without tags or fusion partners.
# UniProt Q9Y237, whole entry: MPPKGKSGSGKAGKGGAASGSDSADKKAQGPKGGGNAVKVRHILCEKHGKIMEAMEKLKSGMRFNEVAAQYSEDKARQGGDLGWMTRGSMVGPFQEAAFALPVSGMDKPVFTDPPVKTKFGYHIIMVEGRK
# This is one part of the list. For some of these results: The exact form of the protein is not confirmed.
# Columns and labels:
# Assay in all cases: protein microarray (ProtoArray v5.0), streptavidin-Alexa Fluor 647
# Details in all cases: 3'-biotin; 20 mM Tris (pH 7.5), 5 mM MgCl2, 100 mM KCl, 0.1% Tween-20, A/T-rich and random oligonucleotide blockers; temperature not stated; high values mean tight binding
# PGDS (human) = system: PGDS (human)
# PGLS (human) = system: PGLS (human)
# PGM1 (human) = system: PGM1 (human)
# PGM2L1 (human) = system: PGM2L1 (human)
# PGM3 (human) = system: PGM3 (human)
# PHGDH (human) = system: PHGDH (human)
# PIM2 (human) = system: PIM2 (human)
# PIN4 = PIN4 (UniProt Q9Y237)
# PIPOX (human) = system: PIPOX (human)
# PITPNC1 (human) = system: PITPNC1 (human)
sequence,measurement,setting,value
GGTGACAGGGGTATGGGGAGGGG [G4-2 biotinylated (Ct1)],binding signal,PGDS (human),-0.366 z-score
same,binding signal,PGLS (human),-0.384 z-score
same,binding signal,PGM1 (human),-0.386 z-score
same,binding signal,PGM2L1 (human),-0.385 z-score
same,binding signal,PGM3 (human),-0.398 z-score
same,binding signal,PHGDH (human),-0.391 z-score
same,binding signal,PIM2 (human),-0.391 z-score
same,binding signal,PIN4,3.41 z-score
same,binding signal,PIPOX (human),-0.367 z-score
same,binding signal,PITPNC1 (human),-0.388 z-score
